The results in this text go back to article PMC9436914.

Protein sequences, listed by entry. Tags and fused reporters are not part of them.
UniProt P49841: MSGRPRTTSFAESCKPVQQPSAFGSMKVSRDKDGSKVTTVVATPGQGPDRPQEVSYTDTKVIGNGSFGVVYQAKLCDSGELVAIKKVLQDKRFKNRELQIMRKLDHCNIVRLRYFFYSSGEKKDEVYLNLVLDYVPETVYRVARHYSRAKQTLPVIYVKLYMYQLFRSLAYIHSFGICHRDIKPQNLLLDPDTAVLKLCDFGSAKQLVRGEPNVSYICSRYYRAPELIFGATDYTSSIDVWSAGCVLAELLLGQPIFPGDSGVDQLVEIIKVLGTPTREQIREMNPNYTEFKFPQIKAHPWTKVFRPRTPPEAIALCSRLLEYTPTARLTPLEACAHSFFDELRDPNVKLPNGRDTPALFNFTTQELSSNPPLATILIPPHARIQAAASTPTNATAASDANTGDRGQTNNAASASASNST
UniProt P38936: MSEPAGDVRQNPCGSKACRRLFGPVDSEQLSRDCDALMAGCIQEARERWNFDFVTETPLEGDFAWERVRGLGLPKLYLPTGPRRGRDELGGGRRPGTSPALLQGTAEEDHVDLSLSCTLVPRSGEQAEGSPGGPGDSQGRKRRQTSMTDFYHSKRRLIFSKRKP
UniProt P35222: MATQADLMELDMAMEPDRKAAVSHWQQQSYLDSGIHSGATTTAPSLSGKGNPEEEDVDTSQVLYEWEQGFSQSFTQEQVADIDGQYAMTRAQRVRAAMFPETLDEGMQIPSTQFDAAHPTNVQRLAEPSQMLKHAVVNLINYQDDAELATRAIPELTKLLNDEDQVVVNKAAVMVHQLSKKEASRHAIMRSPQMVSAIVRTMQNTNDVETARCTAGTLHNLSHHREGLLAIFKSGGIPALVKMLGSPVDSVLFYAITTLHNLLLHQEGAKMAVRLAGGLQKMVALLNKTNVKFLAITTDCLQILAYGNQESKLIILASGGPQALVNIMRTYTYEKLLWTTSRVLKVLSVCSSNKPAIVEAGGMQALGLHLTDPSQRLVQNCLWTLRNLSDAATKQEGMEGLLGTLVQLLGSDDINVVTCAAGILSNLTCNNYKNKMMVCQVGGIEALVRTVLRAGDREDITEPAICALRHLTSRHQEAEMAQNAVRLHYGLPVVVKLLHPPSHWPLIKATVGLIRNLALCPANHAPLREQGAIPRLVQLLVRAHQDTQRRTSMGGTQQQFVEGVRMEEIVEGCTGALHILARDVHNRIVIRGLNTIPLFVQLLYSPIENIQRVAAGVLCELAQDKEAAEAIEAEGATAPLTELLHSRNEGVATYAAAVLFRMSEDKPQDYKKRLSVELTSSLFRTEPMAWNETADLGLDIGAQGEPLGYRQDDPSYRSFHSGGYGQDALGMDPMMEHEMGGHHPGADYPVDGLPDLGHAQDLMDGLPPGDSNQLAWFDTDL

Assay [1] has as its target T1, DNASE1L3 (deoxyribonuclease γ), overexpressed in Hep3B cells (human) (UniProt Q13609).
T1 sequence: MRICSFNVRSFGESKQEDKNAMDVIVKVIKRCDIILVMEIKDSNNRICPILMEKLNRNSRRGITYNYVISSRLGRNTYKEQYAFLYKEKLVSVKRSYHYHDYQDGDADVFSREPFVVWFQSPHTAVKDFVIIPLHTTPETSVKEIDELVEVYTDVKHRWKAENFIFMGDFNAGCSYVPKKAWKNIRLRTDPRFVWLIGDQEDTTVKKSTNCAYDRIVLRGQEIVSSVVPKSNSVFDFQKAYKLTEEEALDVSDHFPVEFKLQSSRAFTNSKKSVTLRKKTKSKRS
As to the kind of experiment: co-IP; exogenous Co-IP in Hep3B cells with overexpressed DNASE1L3; 5 mg protein, 4 μg specific antibody or IgG, overnight at 4°C; Western blotting. On the technique in general: In western blotting, separated proteins are transferred to a membrane and probed.

The target of assay [2] is T2, DNASE1L3, endogenous in Hep3B cells (human (endogenous in Hep3B)) (UniProt Q13609).
T2 sequence: T1 sequence
As to the kind of experiment: co-IP; endogenous Co-IP in Hep3B cells; 5 mg protein, 4 μg specific antibody or IgG, overnight at 4°C; Western blotting.

These are yes or no findings as the source states them, for the method shown. In cells and extracts the contact can be indirect. Some binding calls cover weakened binding; strength is not graded here.

Take “GSK-3β, in Hep3B cells (from UniProt P49841 1-420) (enzyme)”: the binding entry in assay [1] is “binds”.
Consider “P21, in Hep3B cells (from UniProt P38936 1-164)”, for which the binding result in assay [1] is reported as “binds”.
With “β-catenin, in Hep3B cells (from UniProt P35222 1-781)”, the binding entry in assay [2] and in assay [1] was “binds” each time.
